Data on 16 targets can be found in the supplement of paper PMC11732987, “Enantioselective OTUD7B fragment discovery through chemoproteomics screening and high-throughput optimisation” (Communications Chemistry, 2025).

Chains of the proteins cited; added tags and fusions are not shown. Lines headed by an entry give the natural chain unless they say otherwise; changes in a name come on top. Residues count along the entry.
UniProt Q12955: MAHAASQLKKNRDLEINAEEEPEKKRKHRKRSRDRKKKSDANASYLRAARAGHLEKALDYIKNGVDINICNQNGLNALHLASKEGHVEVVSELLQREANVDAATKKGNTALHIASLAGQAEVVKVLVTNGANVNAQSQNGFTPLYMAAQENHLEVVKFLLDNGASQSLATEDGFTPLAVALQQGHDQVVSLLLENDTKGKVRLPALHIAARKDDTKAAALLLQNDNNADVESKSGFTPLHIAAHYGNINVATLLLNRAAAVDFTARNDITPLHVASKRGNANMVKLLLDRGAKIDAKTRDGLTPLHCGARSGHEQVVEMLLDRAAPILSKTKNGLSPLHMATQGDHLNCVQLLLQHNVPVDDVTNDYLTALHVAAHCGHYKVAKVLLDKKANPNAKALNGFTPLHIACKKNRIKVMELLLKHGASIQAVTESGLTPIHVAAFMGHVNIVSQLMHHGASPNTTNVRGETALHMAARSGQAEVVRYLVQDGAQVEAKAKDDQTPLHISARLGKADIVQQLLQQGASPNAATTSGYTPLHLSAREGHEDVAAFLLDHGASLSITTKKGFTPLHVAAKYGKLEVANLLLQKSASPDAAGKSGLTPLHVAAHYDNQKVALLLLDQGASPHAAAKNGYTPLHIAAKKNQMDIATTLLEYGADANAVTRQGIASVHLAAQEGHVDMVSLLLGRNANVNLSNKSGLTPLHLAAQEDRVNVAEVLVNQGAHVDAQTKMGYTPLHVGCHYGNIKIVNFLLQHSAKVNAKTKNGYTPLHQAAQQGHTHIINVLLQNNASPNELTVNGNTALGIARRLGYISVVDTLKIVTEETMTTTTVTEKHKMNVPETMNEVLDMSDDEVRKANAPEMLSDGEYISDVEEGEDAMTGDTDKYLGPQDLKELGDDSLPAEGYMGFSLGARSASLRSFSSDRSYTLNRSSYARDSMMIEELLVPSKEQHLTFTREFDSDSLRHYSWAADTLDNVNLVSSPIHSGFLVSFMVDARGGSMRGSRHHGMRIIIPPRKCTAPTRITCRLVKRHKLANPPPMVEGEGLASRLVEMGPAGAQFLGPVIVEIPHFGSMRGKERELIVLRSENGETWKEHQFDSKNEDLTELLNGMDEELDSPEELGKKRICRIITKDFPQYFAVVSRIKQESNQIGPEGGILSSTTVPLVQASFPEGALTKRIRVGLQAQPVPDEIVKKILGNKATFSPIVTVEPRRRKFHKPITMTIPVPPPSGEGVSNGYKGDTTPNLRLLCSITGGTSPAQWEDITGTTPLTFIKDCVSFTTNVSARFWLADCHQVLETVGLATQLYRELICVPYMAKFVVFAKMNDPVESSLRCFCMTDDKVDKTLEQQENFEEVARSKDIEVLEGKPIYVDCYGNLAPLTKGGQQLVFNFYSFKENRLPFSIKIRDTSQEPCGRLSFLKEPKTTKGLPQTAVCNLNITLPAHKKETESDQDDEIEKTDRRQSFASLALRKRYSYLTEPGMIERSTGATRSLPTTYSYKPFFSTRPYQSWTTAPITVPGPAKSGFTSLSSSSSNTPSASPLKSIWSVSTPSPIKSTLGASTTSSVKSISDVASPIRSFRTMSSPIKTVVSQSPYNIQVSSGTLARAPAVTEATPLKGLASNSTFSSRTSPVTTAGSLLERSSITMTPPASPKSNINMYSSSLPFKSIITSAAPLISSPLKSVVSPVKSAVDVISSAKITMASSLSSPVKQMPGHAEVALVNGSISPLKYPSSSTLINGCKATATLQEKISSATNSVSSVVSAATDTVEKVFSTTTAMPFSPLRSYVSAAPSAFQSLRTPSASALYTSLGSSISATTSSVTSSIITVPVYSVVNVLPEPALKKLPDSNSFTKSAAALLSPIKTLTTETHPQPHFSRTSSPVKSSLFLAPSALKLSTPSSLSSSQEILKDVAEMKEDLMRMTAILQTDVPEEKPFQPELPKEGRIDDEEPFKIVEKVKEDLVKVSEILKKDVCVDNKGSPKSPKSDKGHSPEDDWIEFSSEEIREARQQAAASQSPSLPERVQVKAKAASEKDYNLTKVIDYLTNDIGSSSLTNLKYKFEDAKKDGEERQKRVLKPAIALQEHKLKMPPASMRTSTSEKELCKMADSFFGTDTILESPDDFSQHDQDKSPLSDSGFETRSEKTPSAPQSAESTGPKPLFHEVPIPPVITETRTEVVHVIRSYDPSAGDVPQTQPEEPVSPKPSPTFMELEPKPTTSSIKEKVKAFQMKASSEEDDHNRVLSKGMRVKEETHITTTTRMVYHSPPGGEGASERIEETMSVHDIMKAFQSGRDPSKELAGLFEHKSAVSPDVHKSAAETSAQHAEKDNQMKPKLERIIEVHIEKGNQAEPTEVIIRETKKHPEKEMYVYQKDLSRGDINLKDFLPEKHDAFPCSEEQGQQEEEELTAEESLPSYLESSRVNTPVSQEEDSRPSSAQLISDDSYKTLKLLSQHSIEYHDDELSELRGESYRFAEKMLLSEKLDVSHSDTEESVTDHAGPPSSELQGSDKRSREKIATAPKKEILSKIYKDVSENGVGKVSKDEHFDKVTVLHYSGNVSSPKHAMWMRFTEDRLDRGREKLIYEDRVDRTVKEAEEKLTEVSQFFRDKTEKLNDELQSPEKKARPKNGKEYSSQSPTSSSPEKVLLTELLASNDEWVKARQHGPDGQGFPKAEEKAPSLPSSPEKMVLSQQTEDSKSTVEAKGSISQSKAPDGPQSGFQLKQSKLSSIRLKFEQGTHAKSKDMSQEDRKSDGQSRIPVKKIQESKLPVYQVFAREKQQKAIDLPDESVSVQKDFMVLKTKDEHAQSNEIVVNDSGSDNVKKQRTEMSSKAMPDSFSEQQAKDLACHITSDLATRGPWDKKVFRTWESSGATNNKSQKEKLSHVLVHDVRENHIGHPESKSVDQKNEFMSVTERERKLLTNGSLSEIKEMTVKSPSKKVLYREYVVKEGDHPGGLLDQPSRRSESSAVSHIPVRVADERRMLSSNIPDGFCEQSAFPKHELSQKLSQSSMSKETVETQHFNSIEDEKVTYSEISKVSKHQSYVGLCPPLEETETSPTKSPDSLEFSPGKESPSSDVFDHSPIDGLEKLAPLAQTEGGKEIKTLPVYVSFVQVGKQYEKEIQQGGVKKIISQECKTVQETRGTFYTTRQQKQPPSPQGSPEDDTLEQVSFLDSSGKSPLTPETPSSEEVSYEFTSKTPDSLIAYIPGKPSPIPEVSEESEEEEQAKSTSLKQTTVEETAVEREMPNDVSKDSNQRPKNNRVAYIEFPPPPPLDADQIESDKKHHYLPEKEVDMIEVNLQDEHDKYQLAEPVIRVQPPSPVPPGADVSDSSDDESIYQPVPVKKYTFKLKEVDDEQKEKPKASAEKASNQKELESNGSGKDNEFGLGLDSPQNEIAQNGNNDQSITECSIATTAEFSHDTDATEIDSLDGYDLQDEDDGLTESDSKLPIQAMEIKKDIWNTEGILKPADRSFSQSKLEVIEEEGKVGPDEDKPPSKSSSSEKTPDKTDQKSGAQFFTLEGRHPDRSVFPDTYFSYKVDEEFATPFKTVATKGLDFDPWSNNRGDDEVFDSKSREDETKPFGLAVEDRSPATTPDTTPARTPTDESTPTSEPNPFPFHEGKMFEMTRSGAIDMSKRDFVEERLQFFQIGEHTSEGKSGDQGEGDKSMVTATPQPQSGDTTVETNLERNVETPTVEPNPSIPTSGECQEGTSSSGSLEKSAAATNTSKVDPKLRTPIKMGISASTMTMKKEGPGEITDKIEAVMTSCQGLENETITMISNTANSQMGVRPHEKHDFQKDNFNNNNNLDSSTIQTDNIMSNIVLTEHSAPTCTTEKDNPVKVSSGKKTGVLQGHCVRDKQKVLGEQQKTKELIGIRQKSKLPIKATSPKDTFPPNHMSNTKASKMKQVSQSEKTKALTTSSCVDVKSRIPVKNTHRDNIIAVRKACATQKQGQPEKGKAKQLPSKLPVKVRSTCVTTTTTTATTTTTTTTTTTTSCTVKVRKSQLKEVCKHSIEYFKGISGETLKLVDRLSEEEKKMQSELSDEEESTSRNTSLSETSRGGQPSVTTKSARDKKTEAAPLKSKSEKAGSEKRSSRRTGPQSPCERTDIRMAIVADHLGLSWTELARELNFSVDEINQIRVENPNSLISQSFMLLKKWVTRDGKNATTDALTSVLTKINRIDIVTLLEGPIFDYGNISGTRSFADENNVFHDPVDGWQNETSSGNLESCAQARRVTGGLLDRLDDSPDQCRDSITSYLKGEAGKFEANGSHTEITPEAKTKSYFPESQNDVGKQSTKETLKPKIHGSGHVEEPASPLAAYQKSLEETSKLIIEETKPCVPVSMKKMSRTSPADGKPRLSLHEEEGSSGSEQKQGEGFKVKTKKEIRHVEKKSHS
UniProt Q9NZ32, whole entry, looked up: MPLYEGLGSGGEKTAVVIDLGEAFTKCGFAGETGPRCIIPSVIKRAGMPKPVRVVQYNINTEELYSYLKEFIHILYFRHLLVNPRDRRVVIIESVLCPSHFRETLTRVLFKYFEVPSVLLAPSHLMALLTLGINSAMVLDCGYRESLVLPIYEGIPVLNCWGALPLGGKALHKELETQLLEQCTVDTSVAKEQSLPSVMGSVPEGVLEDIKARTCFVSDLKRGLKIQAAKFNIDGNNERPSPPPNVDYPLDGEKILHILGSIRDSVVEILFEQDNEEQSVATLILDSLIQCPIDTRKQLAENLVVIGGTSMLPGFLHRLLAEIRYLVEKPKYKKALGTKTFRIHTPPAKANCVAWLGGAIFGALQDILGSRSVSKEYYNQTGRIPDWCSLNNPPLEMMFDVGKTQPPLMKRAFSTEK
UniProt P55265: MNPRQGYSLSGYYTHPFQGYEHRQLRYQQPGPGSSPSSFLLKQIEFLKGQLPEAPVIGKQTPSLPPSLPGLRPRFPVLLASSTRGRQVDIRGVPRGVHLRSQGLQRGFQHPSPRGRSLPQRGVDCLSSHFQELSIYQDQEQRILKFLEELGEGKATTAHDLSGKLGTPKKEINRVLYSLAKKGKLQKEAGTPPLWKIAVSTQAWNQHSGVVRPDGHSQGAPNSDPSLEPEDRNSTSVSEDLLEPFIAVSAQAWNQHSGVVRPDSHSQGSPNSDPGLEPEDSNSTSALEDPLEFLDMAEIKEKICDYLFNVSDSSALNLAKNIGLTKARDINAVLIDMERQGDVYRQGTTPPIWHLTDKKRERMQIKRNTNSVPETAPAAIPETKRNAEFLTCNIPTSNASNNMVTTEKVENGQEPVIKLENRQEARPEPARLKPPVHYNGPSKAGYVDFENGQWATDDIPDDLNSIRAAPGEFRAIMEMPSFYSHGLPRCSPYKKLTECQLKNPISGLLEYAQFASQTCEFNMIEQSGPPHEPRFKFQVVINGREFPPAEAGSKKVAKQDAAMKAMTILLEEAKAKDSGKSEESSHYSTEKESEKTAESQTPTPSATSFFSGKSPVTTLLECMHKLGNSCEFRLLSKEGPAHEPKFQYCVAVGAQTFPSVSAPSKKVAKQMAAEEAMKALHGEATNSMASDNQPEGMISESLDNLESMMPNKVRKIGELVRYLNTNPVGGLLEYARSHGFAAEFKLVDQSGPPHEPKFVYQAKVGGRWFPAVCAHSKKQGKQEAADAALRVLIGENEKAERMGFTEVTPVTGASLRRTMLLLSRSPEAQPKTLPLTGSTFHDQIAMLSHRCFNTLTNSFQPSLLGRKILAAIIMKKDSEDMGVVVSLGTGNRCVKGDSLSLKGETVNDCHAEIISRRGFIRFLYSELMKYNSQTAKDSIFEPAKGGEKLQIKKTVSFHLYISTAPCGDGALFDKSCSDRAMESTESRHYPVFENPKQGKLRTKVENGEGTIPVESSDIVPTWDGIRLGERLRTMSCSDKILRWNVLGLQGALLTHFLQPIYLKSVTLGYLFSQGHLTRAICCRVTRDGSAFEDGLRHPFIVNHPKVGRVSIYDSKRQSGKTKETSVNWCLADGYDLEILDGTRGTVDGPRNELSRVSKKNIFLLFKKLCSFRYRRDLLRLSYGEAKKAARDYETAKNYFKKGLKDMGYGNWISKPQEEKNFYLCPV
UniProt Q13686: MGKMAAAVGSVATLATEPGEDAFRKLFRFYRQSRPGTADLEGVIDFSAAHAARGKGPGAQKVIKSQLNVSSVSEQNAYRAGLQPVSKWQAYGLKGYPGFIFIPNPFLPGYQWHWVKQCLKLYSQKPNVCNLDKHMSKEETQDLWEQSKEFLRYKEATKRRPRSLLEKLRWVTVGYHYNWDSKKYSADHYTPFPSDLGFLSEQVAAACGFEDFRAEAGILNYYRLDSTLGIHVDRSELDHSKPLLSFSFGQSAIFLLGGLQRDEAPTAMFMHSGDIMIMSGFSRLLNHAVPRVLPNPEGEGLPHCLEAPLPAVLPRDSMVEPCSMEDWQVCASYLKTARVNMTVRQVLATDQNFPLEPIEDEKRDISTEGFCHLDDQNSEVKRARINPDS
UniProt Q9UJX3, 402-426: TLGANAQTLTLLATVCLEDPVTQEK
UniProt Q9UJX3, 82-105: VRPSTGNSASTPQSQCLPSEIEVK

The list shows a part of the results. The data scatter; read single values as rough.

Compound in experiment [1]: ClCC(=O)N[C@@H]1CCCc2ccccc12
The experiment is described as follows: log2 mean competition ratio of IA-DTB cysteine labelling (DMSO/compound) (log2 ratio); higher = stronger cysteine engagement by compound. Conditions: treatment time: 4 h, cell line lysate: HEK293T. Here is the method: (§1)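 IA-DTB competitive cysteine chemoproteomics in HEK293T RIPA lysate. Lysates were treated with compound 29 or 30 at 50 or 200 µM for 4 h, then IA-DTB (500 µM, 1 h), trypsin-digested, NeutrAvidin-enriched and analysed by diaPASEF. Competition ratio = intensity DMSO / intensity compound (n=4 treated, n=64 DMSO); binding: mean log2 CR ≥ 1 and p ≤ 0.05 plus QC filters. Target is the cysteine site.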

Compound in experiment [2]: ClCC(=O)N[C@H]1CCCc2ccccc12
The experiment is described as above. As to conditions: treatment time: 4 h, cell line lysate: HEK293T. Here is the method:
as §1

On to ALS2 C664 (UniProt Q96Q42), for which the “log2 mean competition ratio” value in experiment [1] (50 µM) is -0.218; in experiment [1] (200 µM) it was -0.188; in experiment [2] (50 µM), 0.184; in experiment [2] (200 µM), -0.00186.
For ALDH6A1 C317 (UniProt Q02252), in that order: 1.12, 0.737, 0.637 and 0.389.
As for ANK3 C4233 (UniProt Q12955), the “log2 mean competition ratio” value in experiment [1] (50 µM) was 0.608; in experiment [1] (200 µM) it was 0.195; in experiment [2] (50 µM) it was 0.42; in experiment [2] (200 µM), -0.154.
Turning to AGMAT C250 (UniProt Q9BSE5), the “log2 mean competition ratio” value was -0.00916 in experiment [1] (50 µM) and 0.221 in experiment [2] (50 µM).
For AGPS C413 (UniProt O00116), the “log2 mean competition ratio” value in experiment [1] (50 µM) was -0.0826; in experiment [1] (200 µM) it was -0.112; in experiment [2] (50 µM), 0.205; in experiment [2] (200 µM), -0.0203.
For AHR C316 the same measures were -0.247, -0.0563, -0.494 and -0.142.
For AGFG2 C30 (UniProt O95081), the “log2 mean competition ratio” value in experiment [1] (50 µM) stood at 0.157; in experiment [1] (200 µM) it was 0.218; in experiment [2] (50 µM), 0.389; in experiment [2] (200 µM), 0.369.
In the case of ACTR10 C27 (UniProt Q9NZ32), the “log2 mean competition ratio” value was -0.0828 in experiment [1] (50 µM), -0.177 in experiment [1] (200 µM), -0.00282 in experiment [2] (50 µM) and -0.158 in experiment [2] (200 µM).
Regarding ADAM10 C435 (UniProt O14672), the “log2 mean competition ratio” value is 0.314 in experiment [1] (50 µM), 0.00704 in experiment [1] (200 µM), -0.17 in experiment [2] (50 µM) and -0.0437 in experiment [2] (200 µM).
For AIP C254 (UniProt O00170), in that order: -0.154, -0.101, -0.146 and -0.634.
For ANGEL2 C139 (UniProt Q5VTE6) the same measures were 0.408, 0.409, 0.2 and 0.149.
For AKAP13 C418 (UniProt Q12802) the same measures were -0.046, 0.159, 0.0952 and 0.179.
For ADAR C499 (UniProt P55265), the “log2 mean competition ratio” value was -0.0129 in experiment [1] (50 µM), -0.173 in experiment [1] (200 µM), 0.911 in experiment [2] (50 µM) and 0.194 in experiment [2] (200 µM).
As for ALKBH1 C129 (UniProt Q13686), the “log2 mean competition ratio” value is 0.264 in experiment [1] (50 µM), -0.105 in experiment [1] (200 µM), 0.0283 in experiment [2] (50 µM) and -0.335 in experiment [2] (200 µM).
For ANAPC7 C417 (UniProt Q9UJX3), in that order: -0.416, -0.0632, -0.016 and -0.142.
For ANAPC7 C97 (UniProt Q9UJX3) the same measures were 0.281, 0.308, 0.646 and 0.0218.
